Assay results: US20120121506A1 (PHILOGEN S P A, published 2012)
Results are given in words; binding and its absence hold for the method and conditions named. A result given as binding can be weak or reduced; the word gives no strength.

Legend:
[1] = target: ED-A isoform of fibronectin in vessels of HL-60 tumours grown in nude mice; assay: immunohistochemistry, HL-60 tumour sections from nude mice, biotinylated SIP 2 ug/ml
[2] = target: tenascin-C in vessels of HL-60 tumours grown in nude mice; assay: as above

| binding [1] | binding [2] | Binder |
| --- | --- | --- |
| binds | – | F8-SIP (V5L/K18R) (antibody, biotinylated (sites not given), Human monoclonal mini-immunoglobulin (small immunoprotein, SIP); It was used biotinylated at 2 ug/ml on tissue sections; also called F8 (V5L/K18R)) EVQLLESGGGLVQPGGSLRLSCAASGFTFSLFTMSWVRQAPGKGLEWVSAISGSGGSTYYADSVKGRFTISRDNSKNTLYLQMNSLRAEDTAVYYCAKSTHLYLFDYWGQGTLVTVSSGGGGSGGGSGGGGGEIVLTQSPGTLSLSPGERATLSCRASQSVSMPFLAWYQQKPGQAPRLLIYGASSRATGIPDRFSGSGSGTDFTLTISRLEPEDFAVYYCQQMRGRPPTFGQGTKVEIKSGGSGGPRAAPEVYAFATPEWPGSRDKRTLACLIQNFMPEDISVQWLHNEVQLPDARHSTTQPRKTKGSGFFVFSRLEVTRAEWEQKDEFICRAVHEAASPSQTVQRAVSVNPESSRRGGC |
| – | binds | 4A1-F16-SIP (antibody, biotinylated (sites not given)) EVQLLESGGGLVQPGGSLRLSCAASGFTFSRYGMSWVRQAPGKGLEWVSAISGSGGSTYYADSVKGRFTISRDNSKNTLYLQMNSLRAEDTAVYYCAKAHNAFDYWGQGTLVTVSRGGGSGGGSGGSSELTQDPAVSVALGQTVRITCQGDSLRSYYASWYQQKPGQAPVLVIYGKNNRPSGIPDRFSGSSSGNTASLTITGAQAEDEADYYCNSSVYTMPPVVFGGGTKLTVLSGGSGGPRAAPEVYAFATPEWPGSRDKRTLACLIQNFMPEDISVQWLHNEVQLPDARHSTTQPRKTKGSGFFVFSRLEVTRAEWEQKDEFICRAVHEAASPSQTVQRAVSVNPESSRRGGC |
